From EP4000606A1, “COMPOUNDS FOR CORONAVIRUS INFECTION TREATMENT AND/OR PREVENTION” (priority 2020, dated 2022)

Tested on: SARS-CoV-2
Test: microbe, parasite or virus in culture
Format: cell-based
Conditions: Severe acute respiratory syndrome coronavirus 2, 120 h

## Nc1ccc(C(=O)Nc2cccc(-c3nc(N4CCOCC4)c4oc5ncccc5c4n3)c2)cn1 [compound 104, 6-Amino-N-[3-[4-(4-morpholinyl)pyrido[3',2':4,5]furo [3,2-d]pyrimidin-2-yl]phenyl]pyridine-3-carboxamide]
  IC50: 4.73 µM
